The values below come from article PMC9485119.

These are yes or no findings as the source states them, for the method shown. In cells and extracts the contact can be indirect. Some binding calls cover weakened binding; strength is not graded here.

Experiment [1] concerns the target T1, MOB kinase activator 1A (MOB1A) (human (endogenous in HCT 116 and HT-29)) (UniProt Q9H8S9).
T1 sequence: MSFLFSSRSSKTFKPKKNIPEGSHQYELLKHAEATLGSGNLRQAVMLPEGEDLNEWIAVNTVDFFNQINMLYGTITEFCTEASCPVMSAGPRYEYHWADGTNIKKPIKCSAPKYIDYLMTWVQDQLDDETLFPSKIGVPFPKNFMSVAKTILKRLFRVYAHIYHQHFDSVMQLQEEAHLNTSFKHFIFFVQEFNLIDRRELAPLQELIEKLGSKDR
Nature of the experiment: co-IP; endogenous proteins in HCT 116 and HT-29 cells; immunoprecipitation with anti-MOB1A or anti-praja2 antibody, western blot; also in cells with WEE2-AS1 knockdown or overexpression. On the technique in general: In western blotting, separated proteins are transferred to a membrane and probed.

Experiment [2] deals with T2, E3 ubiquitin-protein ligase praja2 (human (endogenous in HCT 116 and HT-29)) (UniProt O43164).
T2 sequence: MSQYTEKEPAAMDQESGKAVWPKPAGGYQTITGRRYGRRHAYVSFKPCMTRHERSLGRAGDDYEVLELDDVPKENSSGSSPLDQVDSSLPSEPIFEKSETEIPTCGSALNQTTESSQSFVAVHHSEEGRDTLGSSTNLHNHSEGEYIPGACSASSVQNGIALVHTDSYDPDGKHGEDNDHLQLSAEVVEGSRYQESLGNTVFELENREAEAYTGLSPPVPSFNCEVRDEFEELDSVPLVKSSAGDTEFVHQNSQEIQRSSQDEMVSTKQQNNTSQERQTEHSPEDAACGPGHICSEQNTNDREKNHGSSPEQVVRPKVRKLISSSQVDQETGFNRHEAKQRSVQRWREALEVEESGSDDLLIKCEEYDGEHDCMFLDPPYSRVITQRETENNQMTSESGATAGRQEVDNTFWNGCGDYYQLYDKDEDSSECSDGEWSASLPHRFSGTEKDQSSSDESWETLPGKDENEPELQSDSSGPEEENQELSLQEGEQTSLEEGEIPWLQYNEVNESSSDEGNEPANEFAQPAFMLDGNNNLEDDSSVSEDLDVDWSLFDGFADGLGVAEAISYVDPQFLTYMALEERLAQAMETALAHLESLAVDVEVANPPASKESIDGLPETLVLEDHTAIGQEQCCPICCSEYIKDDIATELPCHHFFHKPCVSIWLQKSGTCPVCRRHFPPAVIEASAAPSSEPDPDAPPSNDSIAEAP
The description is as above.

B1: E3 ubiquitin-protein ligase praja2 (enzyme, UniProt O43164 1-708)
chain: T2 sequence
As for B1, the binding entry in experiment [1] is recorded as “binds”.

B2: MOB kinase activator 1A (MOB1A) (protein, UniProt Q9H8S9 1-216)
chain: T1 sequence
B2: the binding entry in experiment [2] was “binds”.
